According to paper PMC9771724:
For at least one entry, the source does not settle the construct or the ends of the probe. A weaker result is weaker than the reference pair of the same experiment. Tags and fusion partners may be left off the protein sequences shown.

Molecular target: T1, His-SOX9(1-190) DNA-binding domain fragment (UniProt P48436)
T1 sequence (looked up): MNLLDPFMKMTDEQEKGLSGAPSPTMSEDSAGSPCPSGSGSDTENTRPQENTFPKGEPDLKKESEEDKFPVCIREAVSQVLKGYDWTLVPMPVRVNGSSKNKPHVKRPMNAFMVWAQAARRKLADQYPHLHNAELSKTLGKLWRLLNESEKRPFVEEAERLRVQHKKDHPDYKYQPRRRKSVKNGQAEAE
Test: EMSA
Settings: poly dI-dC, 10 mM Tris-Cl pH 7.5, 5 mM MgCl2, 50 mM KCl, 1 mM DTT, 2.5% glycerol, 0.5% NP-40, 50 ng/ml poly dI-dC, 40 fmol biotinylated probe, recombinant protein, residues 1-190, protein details: His, label: biotin

[1] = text: attenuated, legend: abolished

Sequence | binding result [1] | binding result
CAATTTAAACCTGTGTTCTGGTTCCCACAA (double strand) [c-myc-335 SOX probe 5'+3' mut] | binds more weakly | –
CAATTTAAACCTGTGTTCTTTGTCCCACAA (double strand) [c-myc-335 SOX probe 5' mut] | binds more weakly | –
CAATTTAACAATGTGTTCTGGTTCCCACAA (double strand) [c-myc-335 SOX probe 3' mut] | binds more weakly | –
CAATTTAACAATGTGTTCTTTGTCCCACAA (double strand) [c-myc-335 SOX probe WT] | – | binds
